Laboratory results reported in PubChem BioAssay AID540275 (National Center for Advancing Translational Sciences (NCATS), 2011).
About 620 (0.19%) of roughly 320,000 compounds were called active. Inconclusive results, whose numbers are uncertain, are shown with a selection of clear calls. No stated cut-off is given here; in the data, active means activation above about 80%; inconclusive means between about 30% and that limit; inactive means weaker than that.

Protein sequences, listed by entry. Tags and fused reporters are not part of them.
UniProt Q8NER1, whole entry, looked up: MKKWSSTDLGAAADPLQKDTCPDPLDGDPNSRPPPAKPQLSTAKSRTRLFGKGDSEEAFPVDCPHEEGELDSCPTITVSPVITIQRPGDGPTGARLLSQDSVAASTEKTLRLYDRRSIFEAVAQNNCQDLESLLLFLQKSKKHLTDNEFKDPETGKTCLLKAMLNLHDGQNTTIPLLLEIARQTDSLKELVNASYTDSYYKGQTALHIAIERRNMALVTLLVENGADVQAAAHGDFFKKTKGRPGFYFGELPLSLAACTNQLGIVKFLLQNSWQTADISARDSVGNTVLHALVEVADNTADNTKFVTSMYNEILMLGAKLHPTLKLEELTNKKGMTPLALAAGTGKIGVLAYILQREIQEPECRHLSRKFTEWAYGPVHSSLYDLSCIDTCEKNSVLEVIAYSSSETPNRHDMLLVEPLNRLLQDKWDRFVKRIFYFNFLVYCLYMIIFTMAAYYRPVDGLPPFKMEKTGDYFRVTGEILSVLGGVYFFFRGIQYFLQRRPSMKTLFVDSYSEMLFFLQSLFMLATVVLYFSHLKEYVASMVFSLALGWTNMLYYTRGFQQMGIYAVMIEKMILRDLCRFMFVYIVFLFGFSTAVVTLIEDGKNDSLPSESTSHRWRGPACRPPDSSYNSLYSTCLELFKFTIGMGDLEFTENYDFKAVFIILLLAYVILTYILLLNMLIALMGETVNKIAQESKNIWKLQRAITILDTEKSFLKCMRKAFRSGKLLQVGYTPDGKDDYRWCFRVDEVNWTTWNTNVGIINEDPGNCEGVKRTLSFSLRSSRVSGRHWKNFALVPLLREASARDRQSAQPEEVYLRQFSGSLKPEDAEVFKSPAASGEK

Target: Transient receptor potential cation channel subfamily V member 1 (Homo sapiens) (UniProt Q8NER1)
Test: HTS Assay for Compounds that Act as Agonists of the Vanilloid Receptor 1; further: 0% is about no effect
Settings: TRPV1-expressing cells, Fluo-8 calcium influx, agonist mode; at 8.33 µM, stronger effect = higher value
Outline: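 TRPV1-expressing cells were cultured overnight at 35.5C and loaded with Fluo-8 calcium dye for 40 to 90 min at room temperature. After a 10 s baseline, compound was added and calcium influx was read kinetically for 3 min (ex 480/em 520 nm).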

Row | SMILES | activation
1 | C/C(=N\NC(=O)C1CCCC1)c1ccc(Cl)cc1 | inconclusive: 31.8%
2 | CC(=O)Nc1ccc(Nc2nc(C)c([N+](=O)[O-])c(Nc3ccccc3)n2)cc1 | inactive: 4.38%
3 | O=C(O)CC1S/C(=N\N=C2CCCCCC2)N(c2ccccc2)C1=O (centres undefined) | inactive: 0.247%
4 | CC(=O)Nc1ccc(NC2=C(Cl)C(=O)c3ccccc3C2=O)cc1 | inactive: 3.08%
5 | Cc1ccc(/C=N/NC(=O)c2ccccn2)s1 | inconclusive: 75.6%
6 | Cc1ccc(C(=O)OC(C)C(=O)NC2CCCCC2C)cc1S(=O)(=O)N1CCCCC1 (centres undefined) | inconclusive: 30.9%
7 | C[C@H](Cc1ccccc1)Nc1ncnc2c1ncn2[C@@H]1O[C@H](CO)[C@@H](O)[C@H]1O | inactive: 1.84%
8 | COc1ccc(NC(=O)CN(C)CC(=O)Nc2cccc(F)c2)cc1Cl | inconclusive: 33.3%
9 | O=C(c1cnn2c(C(F)F)cc(-c3ccccc3)nc12)N1CCCc2ccccc21 | inconclusive: 59%
10 | O=C(Nc1cccc(O)c1)c1noc2c1CCc1ccccc1-2 | inconclusive: 61.6%
11 | COc1cc(-c2c(-c3cc(OC)c(OC)c(OC)c3)noc2C)ccc1F | inconclusive: 38.5%
12 | Cc1cc(C)c2sc(N(CCCN(C)C)C(=O)c3ccc(S(=O)(=O)N4CCc5ccccc5C4)cc3)nc2c1 | inactive: -0.0067%
13 | CC(CCc1ccccc1)NC(=O)COc1cc(F)ccc1[N+](=O)[O-] (centres undefined) | inconclusive: 34.7%
14 | COc1cc(/C=N\NC(=O)C2COc3ccccc3O2)cc(OC)c1O (centres undefined) | active: 87.7%
15 | CC(=O)c1cc2c(cc1NC(=O)CN1CCC(Cc3ccccc3)CC1)OCO2 | inconclusive: 73.1%
16 | O=C(COc1ccc2ccccc2c1)Nc1nccs1 | inconclusive: 45.5%
17 | Cc1cc(N/N=C/c2ccccc2O)nc(N2CCOCC2)n1 | inconclusive: 72.9%
18 | CCN(C(=O)c1cc2c(C)nc3ccccc3c2o1)c1cc(Cl)ccc1OC | inconclusive: 72.6%
19 | S=C1SCN(Cc2cccnc2)CN1Cc1cccnc1 | inactive: -2.52%
20 | O=C(NCc1ccc2c(c1)CCO2)Nc1ccccc1 | inconclusive: 64.1%
21 | O=C(COC(=O)Cn1[nH]c(=O)c2ccccc2c1=O)NNC(=O)c1ccc(Br)cc1 | inactive: -1.44%
22 | CC(=O)N[C@@H](C)c1nc2ccccc2n1CCCN1CCN(c2nc(-c3ccc(C)cc3)cs2)CC1 | inconclusive: 60.1%
23 | COc1ccc(-c2cc(C(=O)OCC(=O)c3c(N)n(C)c(=O)n(C)c3=O)c3ccccc3n2)cc1 | inactive: 5.05%
24 | O=C(c1cccc2nc3ccccc3nc12)N1CCOCC1 | inactive: -2.36%

Some of these compounds in order of molecular weight, high to low.
Row | SMILES | activation
22 | CC(=O)N[C@@H](C)c1nc2ccccc2n1CCCN1CCN(c2nc(-c3ccc(C)cc3)cs2)CC1 | inconclusive: 60.1%
15 | CC(=O)c1cc2c(cc1NC(=O)CN1CCC(Cc3ccccc3)CC1)OCO2 | inconclusive: 73.1%
8 | COc1ccc(NC(=O)CN(C)CC(=O)Nc2cccc(F)c2)cc1Cl | inconclusive: 33.3%
19 | S=C1SCN(Cc2cccnc2)CN1Cc1cccnc1 | inactive: -2.52%
